Experimental data taken from US20120149881A1.
Results are given in words; binding and its absence hold for the method and conditions named. Sequences can lack the tags named with a protein.

B1: murine anti-IgE/M1′ antibody 26A11 (antibody, V domains shown)
VH: EVQLQQSGPELVKPGASVKMSCKASGYTFTDYYMMWVKQSHGKSLEWIGDINPNNYDTSYNQKFKGKATLTVDKSSSTAYIQLNSLTSEDSAVYYCASKAYWGQGTLVTVSA
VL: DIQMTQTTSSLSASLGDRVTITCRSSQDISNSLNWYQQKPDGPVKLLIYSTSRLHSGVPSRFSGSGSGTDYSLTISNLEQEDLATYFCQQGHTLPWTFGGGTKVEIKR
B2: murine anti-IgE/M1′ antibody 47H4 (antibody, V domains shown)
VH: EVKLVESGGGLVQPGGSRKLSCAASGFTFSDYGMAWVRQAPGKGPEWVAFISDLAYTIYYADTVTGRFTISRENAKNTLYLEMSSLRSEDTALYYCARDNWDAMDYWGQGTSVTVSS
VL: DIVLTQTPLSLPVSLGDQASISCRSSQSLVHNNGNTYLHWYLQKPGQSPKLLIYKVSNRFSGVPDRFSGSGSGTDFTLKISRLEAEDLGVYFCSQNTLVPWTFGGGTKVEIKR
B3: humanized anti-IgE/M1′ antibody 47H4.v5 (antibody, V domains shown)
VH: EVQLVESGGGLVQPGGSLRLSCAASGFTFSDYGIAWVRQAPGKGLEWVAFISDLAYTIYYADTVTGRFTISRDNSKNTLYLQMNSLRAEDTAVYYCARDNWDAMDYWGQGTLVTVSS
VL: DIQMTQSPSSLSASVGDRVTITCRSSQSLVHNNANTYLHWYQQKPGKAPKLLIYKVSNRFSGVPSRFSGSGSGTDFTLTISSLQPEDFATYYCSQNTLVPWTFGQGTKVEIKR
B4: murine anti-IgE/M1′ antibody 7A6 (antibody, V domains shown)
VH: QVQLQQSGAELVRPGASVTLSCKASGYTFIDYEMHWVKQTPVHGLEWIGAIDPETGTTAYNQKFKGKATLTAAKSSSTAYMELRSLTSEDSAVYYCTRLRPHYDYDNAMDSWGQGTTLTVSS
VL: DIVMSQSPSSLTVSVGEKVTLSCKSSQTLLYSTNQKNYLAWYQQKPGQSPKLLIYWASTRESGVPDRFTGSGSGTDFTLTISSVKAEDLAVYYCQQYYSYPYTFGGGTKVEIKR
B5: humanized anti-IgE/M1′ antibody 26A11.v6 (antibody, V domains shown)
VH: EVQLVESGGGLVQPGGSLRLSCAASGYTFTDYYIMWVRQAPGKGLEWVGDINPNNYDTSYNQKFKGRFTISADTSKNTAYLQMNSLRAEDTAVYYCASKAYWGQGTLVTVSS
VL: DIQMTQSPSSLSASVGDRVTITCRSSQDISNYLNWYQQKPGKAPKLLIYSTSRLHSGVPSRFSGSGSGTDFTLTISSLQPEDFATYYCQQGHTLPWTFGQGTKVEIKR
B6: humanized anti-IgE/M1′ antibody 7A6.v1 (antibody, V domains shown)
VH: EVQLVESGGGLVQPGGSLRLSCAASGYTFIDYEMHWVRQAPGKGLEWVGAIDPETGTTAYNQKFKGRFTISADTSKNTAYLQMNSLRAEDTAVYYCTRLRPHYDYDNAMDSWGQGTLVTVSS
VL: DIQMTQSPSSLSASVGDRVTITCKSSQTLLYSTNQKNYLAWYQQKPGKAPKLLIYWASTRESGVPSRFSGSGSGTDFTLTISSLQPEDFATYYCQQYYSYPYTFGQGTKVEIKR

Biological target: U266 IgE (Homo sapiens)
Assay: ELISA on coated antigen, relative OD450/650

binding	Binder
no binding	B1
no binding	B2
no binding	B3
no binding	B4
no binding	B5
no binding	B6
